PubChem BioAssay AID256 (DTP/NCI, 2004)
The list is a part of this screen's results and no random one: it gathers tests that were run many times, whatever their T/C, doses with no T/C, and many T/C values between a quarter and a half above the control. Other doses and runs of a compound stand elsewhere. T/C is the treated group as % of the vehicle group. Some doses have a count of surviving animals in place of a T/C: the source files T/C as zero there, which appears to mark a toxic dose or a test without result, not a measured value. Some survivor counts are full or nearly so, which does not show that the dose was tolerated: the source hardly ever lists a survival T/C far under the control, and the zero likely stands for such cases as well. Counts of survivors are from the toxicity check (mostly the fifth day) where no day follows; animals may have died later. Schedule codes are those of the source, read here as Q, the interval in days (D) or hours (H), X, the number of doses. For survival time, this PubChem deposit counts one and a half times the control or more as active, and values a quarter to a half above the control carry no call in these data; other NCI protocols may use other cut-offs. Additions like (4×) say how often a value occurs here. Some T/C values carry the count of animals alive at the toxicity check (mostly the fifth day); where none is given, no animal had died by that day. Some entries hold several experiments; the values are given in rising order.

Tested on: CD2F1 mice, L1210 leukemia ip, survival T/C
Assay: NCI In Vivo Anticancer Drug Screen. Data for tumor model L1210 Leukemia (intraperitoneal) in CD2F1 (CDF1) mice
Settings: higher T/C = longer survival
Procedure, shortened: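 Compound-dosed mice with transplantable tumor versus matched vehicle controls; endpoint ratio T/C reported.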

[1] = T/C endpoint: mean survival time, dose: 400.0 mg/kg/injection, schedule: Q04DX002 (ip), vehicle: saline with Tween-80
[2] = T/C endpoint: mean survival time, dose: 150.0 mg/kg/injection, schedule: Q01DX001 (ip), vehicle: saline
[3] = T/C endpoint: mean survival time, dose: 300.0 mg/kg/injection, schedule: Q01DX001 (ip), vehicle: saline
[4] = T/C endpoint: mean survival time, dose: 400.0 mg/kg/injection, schedule: Q01DX009 (ip), vehicle: saline with Tween-80
[5] = T/C endpoint: mean survival time, dose: 400.0 mg/kg/injection, schedule: Q04DX003 (ip), vehicle: saline with Tween-80
[6] = T/C endpoint: median survival time, dose: 200.0 mg/kg/injection, schedule: Q01DX009 (ip), vehicle: saline with Tween-80
[7] = T/C endpoint: median survival time, dose: 400.0 mg/kg/injection, schedule: Q01DX009 (ip), vehicle: saline with Tween-80
[8] = T/C endpoint: mean survival time, dose: 50.0 mg/kg/injection, schedule: Q01DX009 (ip), vehicle: saline
[9] = T/C endpoint: median survival time, dose: 50.0 mg/kg/injection, schedule: Q01DX009 (ip), vehicle: saline with Tween-80
[10] = T/C endpoint: mean survival time, dose: 100.0 mg/kg/injection, schedule: Q01DX009 (ip), vehicle: saline with Tween-80
[11] = T/C endpoint: mean survival time, dose: 200.0 mg/kg/injection, schedule: Q01DX009 (ip), vehicle: saline with Tween-80
[12] = T/C endpoint: mean survival time, dose: 400.0 mg/kg/injection, schedule: Q04DX003 (ip), vehicle: saline

Structure (SMILES): CCCCCC(C)(C)N=[P+]([O-])NC(C)(C)CCCCC (configuration not stated)
- survivor count (T/C endpoint: mean survival time, dose: 200.0 mg/kg/injection, schedule: Q04DX002 (ip), vehicle: saline with Tween-80): 0 of 3
- survivor count [1]: 0 of 3

Structure (SMILES): CC(=O)SCCC(=O)O
- survivor count (T/C endpoint: mean survival time, dose: 100.0 mg/kg/injection, schedule: Q04DX003 (ip), vehicle: saline): 0 of 6

Structure (SMILES): C/C=C1\OC(n2cnc3c(N)ncnc32)C(O)C1O (configuration not stated)
- T/C (T/C endpoint: mean survival time, dose: 200.0 mg/kg/injection, schedule: Q01DX005 (ip), vehicle: distilled water + Tween-80): 134 % of control [4 of 6 alive]
- survivor count (T/C endpoint: mean survival time, dose: 400.0 mg/kg/injection, schedule: Q01DX009 (ip), vehicle: distilled water + Tween-80): 0 of 6

Structure (SMILES): CCN(CC)CCSC(=O)C(O)(c1ccccc1)c1cccc(C)c1 (configuration not stated)
- survivor count [2]: 1 of 6
- survivor count [3]: 0 of 6

Structure (SMILES): CC1NC(=O)OC12CCCCC2 (configuration not stated)
- survivor count [4]: 3 of 6

Structure (SMILES): C[CH2][Sn]([Cl])([Cl])[Cl].Oc1ccccc1C=NCCN=Cc1ccccc1O
- survivor count [5]: 3 of 6

Structure (SMILES): COC(C[P+](Cc1ccccc1)(c1ccccc1)c1ccccc1)OC
- survivor count [2]: 0 of 6
- survivor count [3]: 0 of 6

Structure (SMILES): Cc1ccnc(OCCCCCNCCS)c1
- survivor count [3]: 0 of 6

Structure (SMILES): CCN(CC)CC(C)(C)CO
- survivor count [5]: 0 of 6

Structure (SMILES): NC(Cc1ccccc1)C(=O)OCN1C(=O)C2C3C=CC(C2C1=O)C1C2C(=O)N(COC(=O)C(N)Cc4ccccc4)C(=O)C2C31 (configuration not stated)
- T/C (T/C endpoint: median survival time, dose: 60.0 mg/kg/injection, schedule: Q01DX009 (ip), vehicle: water): 142 % of control
- survivor count (T/C endpoint: median survival time, dose: 166.7 mg/kg/injection, schedule: Q01DX009 (ip), vehicle: water): 0 of 6

Structure (SMILES): NC1CCCCC1N.O=C1C=CC(=C(c2ccc(O)cc2)c2ccccc2S(=O)(=O)[O-])C=C1.O=[N+]([O-])[O-].[Pt+4]
- T/C (T/C endpoint: median survival time, dose: 0.78 mg/kg/injection, schedule: Q04DX003 (ip), vehicle: saline): 137 % of control
- survivor count (T/C endpoint: median survival time, dose: 12.5 mg/kg/injection, schedule: Q04DX003 (ip), vehicle: saline with Tween-80): 6 of 6
- survivor count (T/C endpoint: median survival time, dose: 25.0 mg/kg/injection, schedule: Q04DX003 (ip), vehicle: saline with Tween-80): 6 of 6
- survivor count (T/C endpoint: median survival time, dose: 25.0 mg/kg/injection, schedule: Q04DX003 (ip), vehicle: saline): 6 of 6
- survivor count (T/C endpoint: median survival time, dose: 50.0 mg/kg/injection, schedule: Q04DX003 (ip), vehicle: saline with Tween-80): 4 of 6
- survivor count (T/C endpoint: median survival time, dose: 100.0 mg/kg/injection, schedule: Q04DX003 (ip), vehicle: saline with Tween-80): 2 of 6
- survivor count (T/C endpoint: median survival time, dose: 200.0 mg/kg/injection, schedule: Q04DX003 (ip), vehicle: saline with Tween-80): 0 of 6

Structure (SMILES): CCOC(=O)c1[nH]c2cccc3c2c1CC(Br)C3=O (configuration not stated)
- survivor count [6]: 3 of 6
- survivor count [7]: 0 of 6

Structure (SMILES): CCCCCCn1ncc(=O)[nH]c1=O
- T/C [8]: 92, 93, 98, 104 % of control
- T/C (T/C endpoint: mean survival time, dose: 100.0 mg/kg/injection, schedule: Q01DX009 (ip), vehicle: saline): 93, 95, 102, 120 % of control

Structure (SMILES): CNC(=O)Oc1ccc(S(=O)(=O)c2ccc(OC(=O)NC)cc2)cc1
- T/C [9]: 125 % of control
- T/C (T/C endpoint: median survival time, dose: 100.0 mg/kg/injection, schedule: Q01DX009 (ip), vehicle: saline with Tween-80): 140 % of control
- T/C [6]: 125 and 129 % of control [4 of 5 alive]
- survivor count (T/C endpoint: median survival time, dose: 333.0 mg/kg/injection, schedule: Q01DX009 (ip), vehicle: saline with Tween-80): 4 of 6
- survivor count (T/C endpoint: median survival time, dose: 334.34 mg/kg/injection, schedule: Q01DX005 (ip), vehicle: saline with Tween-80): 0 of 6
- survivor count [7]: 0 of 6
- survivor count (T/C endpoint: median survival time, dose: 555.56 mg/kg/injection, schedule: Q01DX005 (ip), vehicle: saline with Tween-80): 0 of 6

Structure (SMILES): Cn1c(=O)[nH]c2nncnc2c1=O
- survivor count (T/C endpoint: mean survival time, dose: 64.0 mg/kg/injection, schedule: Q01DX009 (ip), vehicle: water): 3 of 6

Structure (SMILES): NC(=Nc1ccc(Cl)cc1)/N=C(/N)N1CCN(/C(N)=N/C(N)=Nc2ccc(Cl)cc2)CC1
- survivor count [10]: 0 of 6
- survivor count [11]: 0 of 6
- survivor count [5]: 0 of 6

Structure (SMILES): Cn1c(-c2ccccc2N=NN2CCCCC2)nc(=N)c2ccccc21
- survivor count (T/C endpoint: mean survival time, dose: 25.0 mg/kg/injection, schedule: Q01DX005 (ip), vehicle: water): 1 of 3
- survivor count (T/C endpoint: mean survival time, dose: 50.0 mg/kg/injection, schedule: Q01DX005 (ip), vehicle: water): 1 of 3
- survivor count (T/C endpoint: mean survival time, dose: 100.0 mg/kg/injection, schedule: Q01DX005 (ip), vehicle: water): 0 of 3

Structure (SMILES): C[n+]1ccc(CCC(=O)Nc2ccccc2)cc1
- survivor count [5]: 2 of 6

Structure (SMILES): C[CH2][Sn]([CH2]C)([CH2]C)[S]Cc1ccccc1
- survivor count (T/C endpoint: mean survival time, dose: 6.25 mg/kg/injection, schedule: Q01DX009 (ip), vehicle: saline with Tween-80): 5 of 6
- survivor count (T/C endpoint: mean survival time, dose: 12.5 mg/kg/injection, schedule: Q01DX009 (ip), vehicle: saline with Tween-80): 2 of 6
- survivor count (T/C endpoint: mean survival time, dose: 25.0 mg/kg/injection, schedule: Q01DX009 (ip), vehicle: saline with Tween-80): 0 of 6
- survivor count (T/C endpoint: mean survival time, dose: 25.0 mg/kg/injection, schedule: Q04DX002 (ip), vehicle: saline with Tween-80): 0 of 3
- survivor count (T/C endpoint: mean survival time, dose: 50.0 mg/kg/injection, schedule: Q04DX002 (ip), vehicle: saline with Tween-80): 0 of 3
- survivor count (T/C endpoint: mean survival time, dose: 100.0 mg/kg/injection, schedule: Q04DX002 (ip), vehicle: saline with Tween-80): 0 of 3

Structure (SMILES): O=[n+]1c2ccccc2n([O-])c2ccccc21.[Cl][Ni][Cl]
- survivor count [9]: 5 of 6

Structure (SMILES): COC1N(C2CC(O)C(CO)O2)C(=O)NC(=O)C1(F)Br (configuration not stated)
- survivor count (T/C endpoint: mean survival time, dose: 6.25 mg/kg/injection, schedule: Q01DX009 (ip), vehicle: saline): 0 of 10
- T/C (T/C endpoint: mean survival time, dose: 12.5 mg/kg/injection, schedule: Q01DX009 (ip), vehicle: saline): 128 % of control
- T/C (T/C endpoint: mean survival time, dose: 25.0 mg/kg/injection, schedule: Q01DX009 (ip), vehicle: saline): 126 and 136 % of control [9 of 10 alive]
- T/C [8]: 132 % of control (2×)
- survivor count [12]: 6 of 6

Structure (SMILES): CCOC(=O)c1nc(SC)n(C)c1C(=O)OCC
- survivor count [1]: 2 of 3

Structure (SMILES): OC(c1ccccc1)(c1ccccc1)c1ccccc1 (tested in a mixture with another compound)
- survivor count [10]: 6 of 6
- survivor count [11]: 6 of 6
- survivor count [4]: 6 of 6

Structure (SMILES): CC1NCCOC1c1ccccc1 (configuration not stated)
- survivor count [12]: 0 of 6

Structure (SMILES): CCOC(=O)CCOc1ccccc1N(CCCl)CCCl
- T/C (T/C endpoint: mean survival time, dose: 66.0 mg/kg/injection, schedule: Q01DX009 (ip), vehicle: saline with Tween-80): 127 % of control
- survivor count (T/C endpoint: mean survival time, dose: 150.0 mg/kg/injection, schedule: Q01DX009 (ip), vehicle: saline with Tween-80): 0 of 6

Structure (SMILES): CCOC(=O)Nc1cccc([N+](=O)[O-])c1
- survivor count (T/C endpoint: mean survival time, dose: 400.0 mg/kg/injection, schedule: Q01DX009 (ip), vehicle: other): 1 of 6

Structure (SMILES): COC(=O)c1n[nH]c(C(C)C)c1N=NN(C)C
- survivor count (T/C endpoint: mean survival time, dose: 300.0 mg/kg/injection, schedule: Q01DX009 (ip), vehicle: saline with Tween-80): 0 of 6
